Values of other authors as cited in US4990617A, “N-oxide prodrug derivatives of 3-hydroxy morphinans and partial morphinans and derivatives” (E. I. Du Pont de Nemours and Company, priority 1989, dated 1991).

Conditions: guinea pigs administered morphine sulfate; literature; cited from earlier work

Question: With `CN1CC[C@]23c4c5ccc(O)c4O[C@H]2[C@@H](O)C=C[C@H]3[C@H]1C5.O=S(=O)(O)O` [morphine sulfate] as the compound, how does the “N-oxide metabolite in urine” value read?
Answer: The value was “isolating morphine N-oxide from the urine of guinea pigs”.
